# Reference: US20180066067A1 (Novartis, published 2018)
# The chains behind the UniProt entries cited, without tags or fusion partners. Where a name states a change or a piece, a line headed by the entry shows the natural chain unless it says otherwise.
# UniProt Q9ULT6: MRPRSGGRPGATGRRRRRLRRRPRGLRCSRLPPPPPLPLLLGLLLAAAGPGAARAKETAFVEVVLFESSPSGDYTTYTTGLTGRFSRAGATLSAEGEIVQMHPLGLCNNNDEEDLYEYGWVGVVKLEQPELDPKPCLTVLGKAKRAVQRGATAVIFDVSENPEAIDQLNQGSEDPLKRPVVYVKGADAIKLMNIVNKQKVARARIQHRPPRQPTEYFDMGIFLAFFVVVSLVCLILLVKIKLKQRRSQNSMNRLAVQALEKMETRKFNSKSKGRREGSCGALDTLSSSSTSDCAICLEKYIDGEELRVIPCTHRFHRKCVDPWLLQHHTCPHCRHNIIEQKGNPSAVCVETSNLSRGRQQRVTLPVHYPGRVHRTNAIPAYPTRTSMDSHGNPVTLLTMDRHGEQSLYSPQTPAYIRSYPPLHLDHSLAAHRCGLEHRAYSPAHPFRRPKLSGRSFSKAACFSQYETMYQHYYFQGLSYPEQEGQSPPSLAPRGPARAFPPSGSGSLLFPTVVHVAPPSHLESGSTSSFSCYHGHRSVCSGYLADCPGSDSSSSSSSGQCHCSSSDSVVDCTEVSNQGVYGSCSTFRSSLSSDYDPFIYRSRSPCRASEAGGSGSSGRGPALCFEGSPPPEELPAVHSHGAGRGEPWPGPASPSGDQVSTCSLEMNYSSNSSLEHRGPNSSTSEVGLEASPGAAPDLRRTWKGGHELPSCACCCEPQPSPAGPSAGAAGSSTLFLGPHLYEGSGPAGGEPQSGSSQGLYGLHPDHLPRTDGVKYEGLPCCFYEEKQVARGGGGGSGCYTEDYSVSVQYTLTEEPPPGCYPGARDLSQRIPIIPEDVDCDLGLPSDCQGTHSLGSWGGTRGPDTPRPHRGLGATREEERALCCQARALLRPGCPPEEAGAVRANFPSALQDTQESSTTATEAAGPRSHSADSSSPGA
# Results are given in words; binding and its absence hold for the method and conditions named. Some binding calls cover weakened binding; strength is not graded here.
# Columns and labels:
# [1] = biological target: ZNRF3 (form used in the variant selection and the lysate ELISA not stated) (human) (UniProt Q9ULT6); assay: selection from the LCDR3 affinity maturation library
# [2] = biological target: ZNRF3 (form used in the variant selection and the lysate ELISA not stated) (human) (UniProt Q9ULT6); assay: ELISA with unpurified Fab lysates
# [3] = biological target: ZNRF3 (form used in the variant selection and the lysate ELISA not stated) (human) (UniProt Q9ULT6); assay: selection from the HCDR2 affinity maturation library
# [4] = biological target: ZNRF3 (form used in the variant selection and the lysate ELISA not stated) (human) (UniProt Q9ULT6); assay: ELISA; parental Fab as the reference
binding [1],binding [2],binding [3],binding [4],Binder
binds,binds,,,"Ab2 variant 2B7(3_4G1) (Fab, V domains shown) VH: EVQLVESGGGLVKPGGSLRLSCAASGFTFSDYGIHWVRQAPGKGLEWVGRIKSKTDGGITEYAAPVKGRFTISRDDSKNTLYLQMNSLKTEDTAVYYCARAIYYLEAFDVWGQGTLVTVSS VL: DIELTQPPSVSVSPGQTASITCSGDSLGSYYVHWYQQKPGQAPVLVIYRNKQRPSGIPERFSGSNSGNTATLTISGTQAEDDADYYCATYDSSSWWNVFGGGTKLTVLG"
,binds,binds,,"Ab2 variant 2H2(2_3H8) (Fab, V domains shown) VH: EVQLVESGGGLVKPGGSLRLSCAASGFTFSNAWMSWVRQAPGKGLEWVGRIKAFKEGYITQYAASVKGRFTISRDDSKNTLYLQMNSLKTEDTAVYYCARAIYYLEAFDVWGQGTLVTVSS VL: DIELTQPPSVSVSPGQTASITCSGDSLGSYYVHWYQQKPGQAPVLVIYRNKQRPSGIPERFSGSNSGNTATLTISGTQAEDEADYYCQTYDWMYSSRVFGGGTKLTVLG"
,binds,binds,,"Ab2 variant 2C1(2_3A5) (Fab, V domains shown) VH: EVQLVESGGGLVKPGGSLRLSCAASGFTFSNAWMSWVRQAPGKGLEWVGHIKSSNMGGAAQYAASVKGRFTISRDDSKNTLYLQMNSLKTEDTAVYYCARAIYYLEAFDVWGQGTLVTVSS VL: DIELTQPPSVSVSPGQTASITCSGDSLGSYYVHWYQQKPGQAPVLVIYRNKQRPSGIPERFSGSNSGNTATLTISGTQAEDEADYYCQTYDWMYSSRVFGGGTKLTVLG"
binds,binds,,,"Ab2 variant 1F2(3_1B1) (Fab, V domains shown) VH: EVQLVESGGGLVKPGGSLRLSCAASGFTFSDYGIHWVRQAPGKGLEWVGRIKSKTDGGITEYAAPVKGRFTISRDDSKNTLYLQMNSLKTEDTAVYYCARAIYYLEAFDVWGQGTLVTVSS VL: DIELTQPPSVSVSPGQTASITCSGDSLGSYYVHWYQQKPGQAPVLVIYRNKQRPSGIPERFSGSNSGNTATLTISGTQAEDEADYYCQTFDSQAVTNVFGGGTKLTVLG"
binds,binds,,,"Ab2 variant 2A6(3_4A10) (Fab, V domains shown) VH: EVQLVESGGGLVKPGGSLRLSCAASGFTFSDYGIHWVRQAPGKGLEWVGRIKSKTDGGITEYAAPVKGRFTISRDDSKNTLYLQMNSLKTEDTAVYYCARAIYYLEAFDVWGQGTLVTVSS VL: DIELTQPPSVSVSPGQTASITCSGDSLGSYYVHWYQQKPGQAPVLVIYRNKQRPSGIPERFSGSNSGNTATLTISGTQAEDEADYYCQTFDSQAVTNVFGGGTKLTVLG"

# Second part, the binder before the results:
Binder,binding [1],binding [2],binding [3],binding [4]
"Ab2 variant 2F5(3_4A4) (Fab, V domains shown) VH: EVQLVESGGGLVKPGGSLRLSCAASGFTFSDYGIHWVRQAPGKGLEWVGRIKSKTDGGITEYAAPVKGRFTISRDDSKNTLYLQMNSLKTEDTAVYYCARAIYYLEAFDVWGQGTLVTVSS VL: DIELTQPPSVSVSPGQTASITCSGDSLGSYYVHWYQQKPGQAPVLVIYRNKQRPSGIPERFSGSNSGNTATLTISGTQAEDDADYYCAVWDDEPHHDVFGGGTKLTVLG",binds,binds,,
"Ab2 variant 2B8(4_3E10) (Fab, V domains shown) VH: EVQLVESGGGLVKPGGSLRLSCAASGFTFSDYGIHWVRQAPGKGLEWVGRIKSKTDGGITEYAAPVKGRFTISRDDSKNTLYLQMNSLKTEDTAVYYCARAIYYLEAFDVWGQGTLVTVSS VL: DIELTQPPSVSVSPGQTASITCSGDSLGSYYVHWYQQKPGQAPVLVIYRNKQRPSGIPERFSGSNSGNTATLTISGTQAEDEADYYCQTWDWWARHWVFGGGTKLTVLG",binds,binds,,
"Ab2 variant 2D1(2_3A7) (Fab, V domains shown) VH: EVQLVESGGGLVKPGGSLRLSCAASGFTFSNAWMSWVRQAPGKGLEWVGFTKNEVGGYTTEYAASVKGRFTISRDDSKNTLYLQMNSLKTEDTAVYYCARAIYYLEAFDVWGQGTLVTVSS VL: DIELTQPPSVSVSPGQTASITCSGDSLGSYYVHWYQQKPGQAPVLVIYRNKQRPSGIPERFSGSNSGNTATLTISGTQAEDEADYYCQTYDWMYSSRVFGGGTKLTVLG",,binds,binds,
"Ab2 variant 2C9(4_4E3) (Fab, V domains shown) VH: EVQLVESGGGLVKPGGSLRLSCAASGFTFSDYGIHWVRQAPGKGLEWVGRIKSKTDGGITEYAAPVKGRFTISRDDSKNTLYLQMNSLKTEDTAVYYCARAIYYLEAFDVWGQGTLVTVSS VL: DIELTQPPSVSVSPGQTASITCSGDSLGSYYVHWYQQKPGQAPVLVIYRNKQRPSGIPERFSGSNSGNTATLTISGTQAEDEADYYCASYTSPINVFGGGTKLTVLG",binds,binds,,
"Ab2 variant 2G6(3_4D9) (Fab, V domains shown) VH: EVQLVESGGGLVKPGGSLRLSCAASGFTFSDYGIHWVRQAPGKGLEWVGRIKSKTDGGITEYAAPVKGRFTISRDDSKNTLYLQMNSLKTEDTAVYYCARAIYYLEAFDVWGQGTLVTVSS VL: DIELTQPPSVSVSPGQTASITCSGDSLGSYYVHWYQQKPGQAPVLVIYRNKQRPSGIPERFSGSNSGNTATLTISGTQAEDDADYYCQTYDSLKFSRVFGGGTKLTVLG",binds,binds,,
"Fab clone Ab2 (Fab, V domains shown, also called parental Ab2; ZNRF3 hFab) VH: EVQLVESGGGLVKPGGSLRLSCAASGFTFSDYGIHWVRQAPGKGLEWVGRIKSKTDGGITEYAAPVKGRFTISRDDSKNTLYLQMNSLKTEDTAVYYCARAIYYLEAFDVWGQGTLVTVSS VL: DIELTQPPSVSVSPGQTASITCSGDSLGSYYVHWYQQKPGQAPVLVIYRNKQRPSGIPERFSGSNSGNTATLTISGTQAEDEADYYCQTYDWMYSSRVFGGGTKLTVLG",,,,binds
